We go through three molecules from PMC12436663.

The chains behind the UniProt entries cited, without tags or fusion partners.
UniProt Q08857: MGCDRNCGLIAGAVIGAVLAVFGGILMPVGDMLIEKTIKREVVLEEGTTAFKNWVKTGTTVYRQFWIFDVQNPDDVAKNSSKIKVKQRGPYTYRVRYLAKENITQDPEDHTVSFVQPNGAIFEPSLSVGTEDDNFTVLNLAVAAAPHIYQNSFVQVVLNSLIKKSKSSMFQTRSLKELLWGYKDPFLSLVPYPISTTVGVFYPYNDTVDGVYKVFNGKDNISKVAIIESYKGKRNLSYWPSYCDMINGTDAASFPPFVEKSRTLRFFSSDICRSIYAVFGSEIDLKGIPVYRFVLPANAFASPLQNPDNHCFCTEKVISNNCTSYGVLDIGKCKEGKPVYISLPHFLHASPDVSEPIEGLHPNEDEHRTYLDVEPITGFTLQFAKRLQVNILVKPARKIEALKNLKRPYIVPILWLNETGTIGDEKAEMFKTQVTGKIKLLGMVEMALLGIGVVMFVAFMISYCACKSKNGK
UniProt P49817: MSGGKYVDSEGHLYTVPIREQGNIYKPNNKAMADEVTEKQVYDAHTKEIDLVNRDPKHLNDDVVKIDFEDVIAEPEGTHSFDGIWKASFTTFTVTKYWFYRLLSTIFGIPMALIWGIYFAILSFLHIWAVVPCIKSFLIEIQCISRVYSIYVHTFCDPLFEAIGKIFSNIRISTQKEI

No constants are given. Whether binding was seen depends on the method and setting. In cells and extracts the contact can be indirect. These calls come from enrichment with a bait or labelling near it, and not all partners need be listed.

The target of this assay is T1, Nutritionally regulated adipose and cardiac enriched protein (NRAC), endogenous mouse (mouse (endogenous in mouse adipose tissue)) (UniProt Q8BNX7).
T1 sequence: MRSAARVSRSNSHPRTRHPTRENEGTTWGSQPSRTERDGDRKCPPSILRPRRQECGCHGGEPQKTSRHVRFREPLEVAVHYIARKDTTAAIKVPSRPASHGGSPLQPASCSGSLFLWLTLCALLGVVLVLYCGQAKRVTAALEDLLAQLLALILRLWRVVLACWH
In words: affinity purification with mass spectrometry; NRAC immunoprecipitated with the rat monoclonal NRAC antibody from PGF lysate of wt mice, PGF of Nrac ko mice as control (n = 4); IP lysis buffer 25 mM Tris HCl, 1 mM EDTA, 150 mM NaCl, 5% glycerol, 1% Triton X-100; overnight at 4 °C, Dynabeads ….

With “CD36, endogenous mouse (from UniProt Q08857 1-472) (receptor)”, the binding entry was “binds”.
As to “caveolin-1, endogenous mouse (from UniProt P49817 1-178)”, the binding entry was “binds”.

B1: cavin 1, endogenous mouse (protein, UniProt O54724 1-392)
chain: MEDVTLHIVERPYSGFPDASSEGPEPTQGEARATEEPSGTGSDELIKSDQVNGVLVLSLLDKIIGAVDQIQLTQAQLEERQAEMEGAVQSIQGELSKLGKAHATTSNTVSKLLEKVRKVSVNVKTVRGSLERQAGQIKKLEVNEAELLRRRNFKVMIYQDEVKLPAKLSVSKSLKESEALPEKEGDELGEGERPEDDTAAIELSSDEAVEVEEVIEESRAERIKRSGLRRVDDFKKAFSKEKMEKTKVRTRENLEKTRLKTKENLEKTRHTLEKRMNKLGTRLVPVERREKLKTSRDKLRKSFTPDHVVYARSKTAVYKVPPFTFHVKKIREGEVEVLKATEMVEVGPEDDEVGAERGEATDLLRGSSPDVHTLLEITEESDAVLVDKSDSD
With B1, the binding result is “binds”.
